Among the data in paper PMC6660064 are binding values, retold here.

These are yes or no findings as the source states them, for the method shown. Sequences can lack the tags named with a protein.

Assay [1] addresses T1, recombinant mouse IL15Rα(33–205)-Fc chimera (muIL15RαFc) (mouse), Q60819.
T1 chain: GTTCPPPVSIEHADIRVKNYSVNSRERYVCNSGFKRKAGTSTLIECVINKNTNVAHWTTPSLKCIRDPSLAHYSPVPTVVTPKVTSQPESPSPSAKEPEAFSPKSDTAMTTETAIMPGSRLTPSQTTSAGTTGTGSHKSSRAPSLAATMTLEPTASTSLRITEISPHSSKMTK
Put plainly: condition: muIL15RαFc:muIL15 biolegend ratio of 29:1; SEC; proteins mixed in PBS and incubated at 37°C for 20 minutes (alternative conditions in S2 Fig: 4°C 20 h, RT 15 h, 37°C 0.5 h); molar ratios varied; Superdex 200 increase 10/300 GL, PBS, 0.75 mL/min; both purified. The following applies: remark: other sources report otherwise.

Assay [2] deals with T1, recombinant mouse IL15Rα(33–205)-Fc …. In words: condition: muIL15RαFc:muIL15 peprotech ratio of 0.8:1; SEC; proteins mixed in PBS and incubated at 37°C for 20 minutes (alternative conditions in S2 Fig: 4°C 20 h, RT 15 h, 37°C 0.5 h); molar ratios varied; Superdex 200 increase 10/300 GL, PBS, 0.75 mL/min; both purified. The following applies: remark: other sources report otherwise.

B1: recombinant mouse IL15 (muIL15 biolegend), P48346 49-162 (ligand)
chain: NWIDVRYDLEKIESLIQSIHIDTTLYTDSDFHPSCKVTAMNCFLLELQVILHEYSNMTLNETVRNVLYLANSTLSSNKNVAESGCKECEELEEKTFTEFLQSFIRIVQMFINTS
B1: the binding result in assay [1] is reported as “no binding”.

B2: recombinant mouse IL15 (muIL15 peprotech), P48346 49-162 (ligand)
chain: NWIDVRYDLEKIESLIQSIHIDTTLYTDSDFHPSCKVTAMNCFLLELQVILHEYSNMTLNETVRNVLYLANSTLSSNKNVAESGCKECEELEEKTFTEFLQSFIRIVQMFINTS
Consider B2, for which, in assay [2], the binding result is listed as “no binding”.
